Measurements reported in patent publication US20020156245A1.
These are yes or no findings as the source states them, for the method shown. Binding seen in cells or lysates may run through a third protein. Some entries that bind do so weakly or less than the wild type. Sequences can lack the tags named with a protein.

By UniProt entry, the sequences of proteins in these tests, tags left out. Where a name states a change or a piece, a line headed by the entry shows the natural chain unless it says otherwise.
UniProt P97698: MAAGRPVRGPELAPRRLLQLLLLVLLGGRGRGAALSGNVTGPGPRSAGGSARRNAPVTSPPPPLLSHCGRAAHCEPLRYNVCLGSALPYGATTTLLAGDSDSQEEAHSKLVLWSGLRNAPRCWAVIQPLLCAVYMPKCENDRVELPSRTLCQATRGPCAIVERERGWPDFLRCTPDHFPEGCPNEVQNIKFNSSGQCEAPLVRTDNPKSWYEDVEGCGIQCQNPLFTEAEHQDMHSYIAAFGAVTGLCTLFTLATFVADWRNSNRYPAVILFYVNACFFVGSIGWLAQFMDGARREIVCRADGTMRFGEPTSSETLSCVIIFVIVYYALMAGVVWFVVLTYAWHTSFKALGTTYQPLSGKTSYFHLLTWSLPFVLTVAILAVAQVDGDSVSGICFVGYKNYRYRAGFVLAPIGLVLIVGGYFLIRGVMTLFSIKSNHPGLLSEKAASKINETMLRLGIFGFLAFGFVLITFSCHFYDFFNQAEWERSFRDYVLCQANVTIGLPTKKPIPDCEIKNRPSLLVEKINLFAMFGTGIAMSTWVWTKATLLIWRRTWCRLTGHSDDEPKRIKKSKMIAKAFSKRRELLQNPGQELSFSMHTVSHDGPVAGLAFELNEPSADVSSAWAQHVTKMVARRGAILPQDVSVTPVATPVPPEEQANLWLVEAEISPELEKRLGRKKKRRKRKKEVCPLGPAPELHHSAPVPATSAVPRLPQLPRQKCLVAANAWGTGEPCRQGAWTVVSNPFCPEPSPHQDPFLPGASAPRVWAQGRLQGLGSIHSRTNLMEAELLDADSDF

How the values were obtained:
[1] = target: myc-epitope tagged Smo (SEQ ID NO:15) (Rattus norvegicus (Rat)) (UniProt P97698); assay: co-immunoprecipitation with 9E10 anti-myc or M2 anti-FLAG, western blot
[2] = target: myc-epitope tagged Smo (SEQ ID NO:15) (Rattus norvegicus (Rat)) (UniProt P97698); assay: summary of the co-immunoprecipitation in Example 1
[3] = target: myc-epitope tagged Smo (SEQ ID NO:15) (Rattus norvegicus (Rat)) (UniProt P97698); assay: co-immunoprecipitation from co-transfected 293 cells
[4] = target: myc-epitope tagged Smo (SEQ ID NO:15) (Rattus norvegicus (Rat)) (UniProt P97698); assay: co-immunoprecipitation (IP anti-Flag, blot anti-Myc) from co-transfected 293 cells

Measured: binding

B1: FLAG-epitope tagged Ptch2 (receptor, not shown: small tags and cut ends)
chain: MTRSPPLRELPPSYTPPARTAAPQILAGSLKAPLWLRAYFQGLLFSLGCGIQRHCGKVLFLGLLAFGALALGLRMAIIETNLEQLWVEVGSRVSQELHYTKEKLGEEAAYTSQMLIQTARQEGENILTPEALGLHLQAALTASKVQVSLYGKSWDLNKICYKSGVPLIENGMIEWMIEKLFPCVILTPLDCFWEGAKLQGGSAYLPGRPDIQWTNLDPEQLLEELGPFASLEGFRELLDKAQVGQAYVGRPCLHPDDLHCPPSAPNHHSRQAPNVAHELSGGCHGFSHKFMHWQEELLLGGMARDPQGELLRAEALQSTFLLMSPRQLYEHFRGDYQTHDIGWSEEQASTVLQAWQRRFVQLAQEALPENASQQIHAFSSTTLDDILHAFSEVSAARVVGGYLLMLAYACVTMLRWDCAQSQGSVGLAGVLLVALAVASGLGLCALLGITFNAATTQVLPFLALGIGVDDVFLLAHAFTEALPGTPLQERMGECLQRTGTSVVLTSINNMAAFLMAALVPIPALRAFSLQAAIVVGCTFVAVMLVFPAILSLDLRRRHCQRLDVLCCFSSPCSAQVIQILPQELGDGTVPVGIAHLTATVQAFTHCEASSQHVVTILPPQAHLVPPPSDPLGSELFSPGGSTRDLLGQEEETRQKAACKSLPCARWNLAHFARYQFAPLLLQSHAKAIVLVLFGALLGLSLYGATLVQDGLALTDVVPRGTKEHAFLSAQLRYFSLYEVALVTQGGFDYAHSQRALFDLHQRFSSLKAVLPPPATQAPRTWLHYYRNWLQGIQAAFDQDWASGRITRHSYRNGSEDGALAYKLLIQTGDAQEPLDFSQLTTRKLVDREGLIPPELFYMGLTVWVSSDPLGLAASQANFYPPPPEWLHDKYDTTGENLRIPPAQPLEFAQFPFLLRGLQKTADFVEAIEGARAACAEAGQAGVHAYPSGSPFLFWEQYLGLRRCFLLAVCILLVCTFLVCALLLLNPWTAGLIVLVLAMMTVELFGIMGFLGIKLSAIPVVILVASVGIGVEFTVHVALGFLTTQGSRNLRAAHALEHTFAPVTDGAISTLLGLLMLAGSHFDFIVRYFFAALTVLTLLGLLHGLVLLPVLLSILGPPPEVIQMYKESPEILSPPAPQGGGLRWGASSSLPQSFARVTTSMTVAIHPPPLPGAYIHPAPDEPPWSPAATSSGNLSSRGPGPATG
binds: all assays above
